Measurements published in PubChem BioAssay AID2685 (National Center for Advancing Translational Sciences (NCATS), 2010).
This is one part of the list. The main result of the screen is listed elsewhere. These columns were measured beside it and carry no call. The list favours compounds with an active or inconclusive main result. Words in brackets tell the shape of the fitted curve; partial curves, single points and poor fits give uncertain potencies.

Experiment: qHTS Assay for Lipid Storage Modulators in Drosophila S3 Cells;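 on cell number change: cells counted by Cell Tracker Red CMTPX staining in the red channel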
Details: BODIPY lipid droplet fluorescence, 18-24 h; for cell number change: measured here: cell count max response, cells fed with added oleic acid
Outline: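 Drosophila S3 cells got compounds at several concentrations plus oleic acid (400 uM solution). Laser-scanning cytometry with 488 nm excitation read lipid droplets at 500-530 nm and cells at 575-640 nm. Percent activity was relative to 20 uM Triacsin C.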

[1] = measured here: lipid fluorescence (Fed channel) AC50, cells fed with added oleic acid
[2] = measured here: cell number channel AC50, cells fed with added oleic acid

With `CC(C)(C)OC(=O)CNC(=O)c1[nH]cnc1C(=O)NC(c1ccccc1)c1ccccc1` the cell number change was -7.78%.
With `CC(C)(C)CC(=O)Nc1ccc(-c2cn3cccnc3n2)cc1` the cell number change was -1.8% and the AC50 [1] was 0.00517 µM [falling, full curve, poor fit].
With `CCOc1cc(/C=N/O)cc(Cl)c1OC` the AC50 [1] was 29.1 µM [rising, single point].
For `CCCCn1c(SCC(=O)/C(C#N)=C(\C)N)nc2ccccc2c1=O`, the AC50 [2] was 0.58 µM [falling, single point] and the AC50 [1] was 23.1 µM [rising, partial curve].
For `O=CN1CCN(C(=O)COc2ccc(Cl)cc2Br)CC1`, the cell number change was -3.86% and the AC50 [1] was 23.1 µM [rising, single point].
For `O=[N+]([O-])c1ccc(/C=N/Nc2nc(N3CCCCCC3)nc(N3CCCCCC3)n2)o1`, the cell number change was -23.8% and the AC50 [1] was 29.1 µM [falling, single point].
With `Cc1ccc(NC(N)=S)cc1C` the cell number change was 0.341%, the AC50 [2] was 0.58 µM [falling, single point] and the AC50 [1] was 0.92 µM [falling, single point].
With `O=C(CSc1ncn[nH]1)NC12CC3CC(CC(C3)C1)C2` the cell number change was -17.2% and the AC50 [1] was 29.1 µM [falling, single point].
In the case of `CC(NC(=O)c1ccc(Cl)cc1)c1nnc(SCC(=O)NC2=NCCS2)n1C` (stereo not drawn), the cell number change is reported as -28.9% and the AC50 [2] is reported as 4.61 µM [falling, full curve, poor fit].
With `CCOC(=O)c1sc(N)c(C#N)c1COC(=O)CNC(=O)c1ccccc1` the cell number change was -8.13% and the AC50 [1] was 0.461 µM [rising, full curve].
In the case of `CCN(CC)CCN1C(=O)C(=O)/C(=C(/O)c2ccc(S(=O)(=O)N3CCOCC3)cc2)C1c1ccc(C)cc1` (stereo not drawn), the cell number change is reported as 4.01%.
In the case of `Clc1nc(-c2ccccn2)nc2scc(-c3ccccc3)c12`, the AC50 [2] is reported as 1.64 µM [rising, partial curve].
For `Cc1csc(NC(=O)CSc2sc3c(O)cc(=O)[nH]c3c2C#N)n1`, the cell number change was 18.8% and the AC50 [1] was 4.11 µM [rising, single point].
With `CN(C)S(=O)(=O)c1cccc(NC(=O)c2cc(=O)[nH]c3ccccc23)c1` the cell number change was 16.9% and the AC50 [1] was 29.1 µM [rising, single point].
In the case of `CC(=O)Nc1nonc1-c1ccccc1`, the cell number change is reported as -1.23% and the AC50 [1] is reported as 3.66 µM [falling, full curve, poor fit].
For `Oc1ccccc1-c1nnc(COc2ccc(Cl)cc2Cl)o1`, the cell number change was 16.8% and the AC50 [1] was 0.651 µM [falling, full curve].
Compound `CCC(C)(C)NC(=O)C(c1ccc(OC)cc1)N(Cc1ccccc1)C(=O)CCC(=O)Nc1cc(C)on1` (stereo not drawn) has a cell number change of 19.1%.
For `COC(=O)CSc1nnc(-c2ccco2)o1`, the cell number change was -3.3%.
With `C/C(N)=C(/C#N)C(=O)CSc1nnc(-c2ccccc2Br)o1` the AC50 [2] was 0.366 µM [rising, full curve, poor fit] and the AC50 [1] was 1.84 µM [rising, partial curve].
In the case of `CN(C)CCCN(C(=O)COc1ccccc1)c1nc2c(Cl)cccc2s1`, the cell number change is reported as -48.6%, the AC50 [2] is reported as 29.1 µM [falling, single point] and the AC50 [1] is reported as 0.58 µM [falling, partial curve, poor fit].
With `CC(=O)N(Cc1cc2cc(C)c(C)cc2n2nnnc12)CC1COCCO1` (stereo not drawn) the cell number change was 40.5% and the AC50 [2] was 0.164 µM [rising, full curve, poor fit].
In the case of `O=C(Nc1ccccc1Cl)N1CCN(c2ccc3nnc(-c4ccccc4)n3n2)CC1`, the AC50 [2] is reported as 6.51 µM [rising, single point] and the AC50 [1] is reported as 6.51 µM [rising, single point].
`CCOC(=O)c1ccc(NC(=O)C(CC)CC)cc1` showed a cell number change of 8.23%.
With `COc1ccc(C(=O)CN2C(=O)NC3(CCCc4ccccc43)C2=O)c(OC)c1` (stereo not drawn) the cell number change was 7.57% and the AC50 [1] was 18.4 µM [falling, single point].
`Fc1ccc(-c2nn(-c3ccccc3)cc2CNCc2ccccc2)cc1` showed a cell number change of -17.8%.
With `Cc1ccc([C@@H]2[C@@H]3C(=O)N(C)C(=O)[C@@H]3[C@]3(C)C(=O)N(CCO)CC(=O)N23)o1` the cell number change was 18.3% and the AC50 [2] was 0.0517 µM [rising, full curve, poor fit].
In the case of `CC(C(=O)Nc1ccccc1)c1ccc(-c2ccccc2)c(F)c1` (stereo not drawn), the cell number change is reported as 77.4%, the AC50 [2] is reported as 8.2 µM [rising, partial curve] and the AC50 [1] is reported as 23.1 µM [rising, partial curve].
In the case of `Cn1cc(CN2CCC(n3nccc3NC(=O)c3ccccc3Cl)CC2)c2ccccc21`, the cell number change is reported as 4.61%, the AC50 [2] is reported as 3.66 µM [rising, partial curve] and the AC50 [1] is reported as 3.66 µM [rising, full curve].
For `N#CC1(C#N)[C@@H](C(=O)C23CC4CC(CC(C4)C2)C3)C12CCOCC2`, the cell number change was -21.5%, the AC50 [2] was 7.31 µM [falling, partial curve, poor fit] and the AC50 [1] was 0.326 µM [falling, partial curve, poor fit].
In the case of `COc1ccc(-n2nc3cc(C)c(NC(=O)c4cccnc4)cc3n2)cc1`, the cell number change is reported as 17.1%, the AC50 [2] is reported as 0.461 µM [rising, full curve] and the AC50 [1] is reported as 1.46 µM [rising, full curve].
With `Cc1ccccc1C(=O)NNC(=O)c1cc(S(=O)(=O)N2CCOCC2)ccc1C` the cell number change was -47.9%, the AC50 [2] was 1.16 µM [falling, full curve] and the AC50 [1] was 1.03 µM [falling, full curve].
With `Cc1ccc(-c2[nH]ncc2/C=N/n2c(COc3ccccc3)nc3ccccc3c2=O)cc1` the cell number change was -61.6%, the AC50 [2] was 29.1 µM [falling, single point] and the AC50 [1] was 29.1 µM [falling, single point].
Compound `CCCCCOC(=O)C1[C@H]2C(=O)N(c3ccccc3CC)C[C@]23C=C[C@H]1O3` (stereo partly drawn) has a cell number change of 2.87%.
In the case of `Cc1ccc(C2CC2c2n[nH]c(=S)n2-c2ccc(C)cc2)cc1` (stereo not drawn), the cell number change is reported as -15.4% and the AC50 [1] is reported as 0.731 µM [falling, full curve].
With `O=C(c1cc2c(s1)CCCC2)n1cccn1` the cell number change was 53% and the AC50 [2] was 29.1 µM [rising, single point].
In the case of `CC(OC(=O)Cc1c(F)cccc1Cl)C(=O)NCCC1=CCCCC1` (stereo not drawn), the cell number change is reported as 60.8%, the AC50 [2] is reported as 29.1 µM [rising, single point] and the AC50 [1] is reported as 25.9 µM [falling, partial curve, poor fit].
Work on `CSc1nc(S(=O)(=O)c2ccc(C)cc2)c(Cl)s1` yielded a cell number change of -31.3%.
In the case of `COc1ccc(CCN(C)Cc2nc(-c3cnccn3)no2)cc1OC`, the cell number change is reported as 23.9% and the AC50 [1] is reported as 0.651 µM [rising, full curve, poor fit].
For `Cc1ccc(S(=O)(=O)/C(C#N)=C/c2c(N3CCC(C(N)=O)CC3)nc3ccccn3c2=O)cc1`, the cell number change was 45.9% and the AC50 [2] was 1.84 µM [rising, partial curve].
In the case of `O=C(NCc1ccc2c(c1)OCO2)c1nc(Cn2cc([N+](=O)[O-])cn2)no1`, the cell number change is reported as -5.71% and the AC50 [2] is reported as 0.013 µM [rising, full curve, poor fit].
In the case of `O=C(O)c1cccc(N2C(=S)N=C(Nc3ccccc3)C23CCCCC3)c1`, the cell number change is reported as -47.2% and the AC50 [2] is reported as 20.6 µM [falling, single point].
In the case of `O=C(Nc1nnc(C23CC4CC(CC(C4)C2)C3)s1)c1ccc(N2C(=O)CCC2=O)cc1`, the cell number change is reported as -17.3% and the AC50 [2] is reported as 6.51 µM [falling, single point].
`C=CCn1c(-c2cccc(S(=O)(=O)N3CCOCC3)c2)n[nH]c1=S` gave a cell number change of 16.5%.
In the case of `CCCCNC(=O)CN(C1CCCCC1)S(C)(=O)=O`, the cell number change is reported as -188%, the AC50 [2] is reported as 18.4 µM [falling, single point] and the AC50 [1] is reported as 25.9 µM [falling, single point].
In the case of `CC(C)Oc1ccccc1OCCCOc1cccc2cccnc12`, the cell number change is reported as -11.7% and the AC50 [1] is reported as 2.91 µM [falling, partial curve, poor fit].
For `Cc1ccc2nc(S(=O)(=O)O)[nH]c2c1`, the cell number change was -25.6% and the AC50 [1] was 29.1 µM [falling, single point].
For `Cc1ccc2c(c1)N(C(=O)CCC(=O)Nc1ccccc1Cl)CC(C)O2` (stereo not drawn), the cell number change was 7.2%.
In the case of `CC(NC(=O)CN1CCN(S(=O)(=O)c2ccc(Br)cc2)CC1)c1ccccc1` (stereo not drawn), the cell number change is reported as 115% and the AC50 [2] is reported as 20.6 µM [rising, single point].
With `O=C(Nc1cc(C(F)(F)F)ccc1Cl)C1CCN(c2nnc(-n3cccc3)s2)CC1` the cell number change was -18.4% and the AC50 [1] was 29.1 µM [falling, single point].
In the case of `CCOC(=O)C1CCN(c2nc(C)nc3c2oc2ccccc23)CC1`, the cell number change is reported as -31.4% and the AC50 [2] is reported as 29.1 µM [falling, partial curve].
In the case of `Cc1cc(C)nc(SCc2cn3c(C)cc(C)nc3n2)n1`, the cell number change is reported as 18.1% and the AC50 [1] is reported as 4.61 µM [rising, full curve].
With `CC/C(=N\NC(=O)CSCc1ccccc1Br)c1ccc2c(c1)OCCO2` the AC50 [2] was 1.3 µM [rising, full curve, poor fit].
In the case of `COc1ccc(OCCCC(=O)Oc2ccc(OC)cc2)cc1`, the cell number change is reported as -70.5% and the AC50 [2] is reported as 3.26 µM [falling, partial curve].
With `CCOC(=O)N1CCC(Nc2c(NCCCOC)c(=O)c2=O)CC1` the cell number change was -43.6%, the AC50 [2] was 4.11 µM [falling, full curve] and the AC50 [1] was 5.17 µM [falling, full curve].
In the case of `CCc1nccn1S(=O)(=O)c1ccc2ccccc2c1`, the cell number change is reported as -0.424%, the AC50 [2] is reported as 5.17 µM [falling, single point] and the AC50 [1] is reported as 16.4 µM [falling, single point].
In the case of `O=C(CC(=O)Nc1ccc(F)cc1F)Nc1ccc(F)cc1F`, the AC50 [1] is reported as 29.1 µM [rising, single point].
With `CCN(c1ccc(OC)cc1)S(=O)(=O)c1ccc(-c2ccc(=O)[nH]n2)o1` the cell number change was -35.7%, the AC50 [2] was 2.31 µM [falling, partial curve, poor fit] and the AC50 [1] was 6.51 µM [falling, partial curve].
In the case of `O=c1cc(-c2ccccc2F)oc2ccccc12`, the cell number change is reported as -25.8% and the AC50 [1] is reported as 14.6 µM [falling, single point].
For `Cc1ccc(S(=O)(=O)CCc2nnc(NC(=O)c3cccs3)s2)cc1`, the cell number change was 136%, the AC50 [2] was 18.4 µM [rising, single point] and the AC50 [1] was 18.4 µM [rising, partial curve].
